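CHO cells carrying the rat M1 muscarinic receptor, pre-treated with compound, then stimulated by carbachol for 30 min; IP1 build-up read by HTRF as inhibition. Each compound ran as a dilution series of about 15 steps, from roughly 0.00059 to 46 µM. The value is the fitted AC50 for inhibition; a lower number means a more potent blocker. Calls come from fitted curve class and score: actives score 40–100, inconclusives (weaker, partial, poorly fitted or single-point curves) score 1–39, inactives score 0.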

By UniProt entry, the sequences of proteins in these tests, tags left out.
UniProt P08482, whole entry, target on record: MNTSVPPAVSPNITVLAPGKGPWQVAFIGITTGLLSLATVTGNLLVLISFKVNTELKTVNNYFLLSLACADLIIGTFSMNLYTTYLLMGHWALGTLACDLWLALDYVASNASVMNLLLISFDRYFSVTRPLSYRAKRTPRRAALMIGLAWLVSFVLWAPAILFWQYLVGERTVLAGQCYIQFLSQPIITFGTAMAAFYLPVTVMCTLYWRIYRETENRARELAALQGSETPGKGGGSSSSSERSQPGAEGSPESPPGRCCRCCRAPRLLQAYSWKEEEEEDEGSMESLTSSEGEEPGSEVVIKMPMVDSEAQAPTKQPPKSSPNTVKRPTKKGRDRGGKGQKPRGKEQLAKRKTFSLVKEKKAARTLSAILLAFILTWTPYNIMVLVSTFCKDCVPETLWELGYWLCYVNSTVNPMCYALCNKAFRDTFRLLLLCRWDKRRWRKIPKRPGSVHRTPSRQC

Values are in µM. Every entry below has the call inconclusive. These entries are mostly ones the record files as inconclusive; other results of the assay are not listed here. A potency from a partial, single-point or poor curve is only a rough figure. Activity scores are not listed here.

Result for CCCCCCCCC(=O)NCc1ccc(O)c(OC)c1 was Potency 1.585 µM (inhibitor, full curve, poor fit).
Result for CP(=O)(O)CCCN was Potency 7.943 µM (inhibitor, full curve, poor fit).
Result for O=C(CCCN1CCC(O)(c2cccc(C(F)(F)F)c2)CC1)c1ccc(F)cc1 was Potency 22.39 µM (inhibitor, partial curve, poor fit).
Result for N#C/C(=C\c1ccc(O)c(O)c1)C(=O)c1ccc(O)c(O)c1 was Potency 5.012 µM (inhibitor, full curve, poor fit).
Result for COc1cc([C@H]2c3cc4c(cc3[C@@H](O[C@@H]3O[C@H]5CO[C@@H](C)O[C@]5(O)C[C@H]3O)[C@@H]3COC(=O)[C@H]23)OCO4)cc(OC)c1O was Potency 17.78 µM (inhibitor, partial curve, poor fit).
Result for O=C(O)c1cc(=O)c2c(Cl)cc(Cl)cc2[nH]1 was Potency 15.85 µM (inhibitor, partial curve, poor fit).
Result for O=C1NC(=O)C(c2ccccc2[N+](=O)[O-])=C1Nc1ccc(O)c(Cl)c1 was Potency 17.78 µM (inhibitor, partial curve, poor fit).
Result for NC(=NCc1ccccc1)NC(=O)c1nc(Cl)c(N)nc1N was Potency 14.13 µM (inhibitor, partial curve, poor fit).
Result for CCN1CCc2nc(N)oc2CC1 was Potency 31.62 µM (inhibitor, partial curve, poor fit).
Result for CCCN(CCC)CCc1cccc2c1CC(=O)N2 was Potency 14.13 µM (inhibitor, partial curve).
Result for COC[C@H]1OC(=O)c2coc3c2[C@@]1(C)C1=C(C3=O)[C@H]2CCC(=O)[C@@]2(C)C[C@H]1OC(C)=O was Potency 2.818 µM (inhibitor, full curve, poor fit).
Result for N[C@H](CCl)C(=O)O was Potency 12.59 µM (inhibitor, partial curve, poor fit).
Result for O=[N+]([O-])c1ccc(-c2nc(-c3ccc(F)cc3)c(-c3ccncc3)[nH]2)cc1 was Potency 17.78 µM (inhibitor, partial curve, poor fit).
Result for CCCN1CCC[C@H](c2cccc(O)c2)C1 was Potency 10 µM (inhibitor, partial curve, poor fit).
Result for CN1CCc2cc(O)cc3c2[C@H]1Cc1ccc(O)c(O)c1-3 was Potency 7.943 µM (inhibitor, full curve, poor fit).
Result for Cc1ccc(S(=O)(=O)N[C@@H](CCCCN)C(=O)CCl)cc1 was Potency 17.78 µM (inhibitor, partial curve, poor fit).
Result for C[C@@]12C=CC(=O)C=C1CC[C@@H]1C2=CC[C@]2(C)[C@@H]1CC[C@H]2C(=O)CN1CCN(c2cc(N3CCCC3)nc(N3CCCC3)n2)CC1 was Potency 15.85 µM (inhibitor, partial curve, poor fit).
Result for CCNC(=O)[C@@H]1O[C@@H](n2cnc3c(N)nc(NCCc4ccc(CCC(=O)O)cc4)nc32)[C@H](O)[C@@H]1O was Potency 2.512 µM (inhibitor, full curve, poor fit).
Result for CC(C)(C=O)Cc1cc(C(C)(C)C)c(O)c(C(C)(C)C)c1 was Potency 35.48 µM (inhibitor, single point).
Result for OCc1ccc(-c2nn(Cc3ccccc3)c3ccccc23)o1 was Potency 28.18 µM (inhibitor, single point).
Result for Cc1c(C(=O)c2cccc3ccccc23)c2cccc3c2n1[C@H](CN1CCOCC1)CO3 was Potency 1.995 µM (inhibitor, full curve, poor fit).
Result for c1cnc(N2CCN(Cc3ccc4c(c3)OCO4)CC2)nc1 was Potency 8.912 µM (inhibitor, partial curve, poor fit).
Result for CN1[C@@H](CC(=O)c2ccccc2)CCC[C@@H]1C[C@@H](O)c1ccccc1 was Potency 14.13 µM (inhibitor, partial curve, poor fit).
Result for O=C1c2c(O)cc(O)cc2O[C@@H](c2ccc(O)c(O)c2)[C@H]1O was Potency 28.18 µM (inhibitor, partial curve, poor fit).
Result for COc1cc(-c2ccc(=O)[nH]n2)ccc1OC(F)F was Potency 89.13 µM (inhibitor, partial curve, poor fit).
Result for CC(=O)NCCc1ccc(O)c(O)c1 was Potency 17.78 µM (inhibitor, partial curve, poor fit).
Result for CCCn1c(=O)c2c(ncn2C)n(CCC)c1=O was Potency 19.95 µM (inhibitor, partial curve, poor fit).

The last 2 entries again:

structure,Potency (µM),curve
CC(=O)NCCc1ccc(O)c(O)c1,17.78,"inhibitor, partial curve, poor fit"
CCCn1c(=O)c2c(ncn2C)n(CCC)c1=O,19.95,"inhibitor, partial curve, poor fit"

Data taken from PubChem BioAssay AID944, deposited by NCATS (2007).